Reference: PubChem BioAssay AID1224830 (NIAID, 2016)

Screen: 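Regulators of TLR4 signalling towards TNF-alpha in macrophage-like cells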 (primary screen)
Cells: human THP-1 monocytic leukaemia cells, TNF dual-luciferase reporter clone, PMA-differentiated to macrophage-like cells
Reagents: siRNA pool against human genes, 50 nM
Duration: LPS for 4 h, given about 3 days after siRNA transfection
Treatment: bacterial LPS (TLR4 ligand), 10 ng/ml
Measurement: 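Ratio of firefly to renilla light, scaled to the plate median and expressed as a robust z-score per replicate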
Scale: TNF reporter robust z-score: higher = stronger TNF reporter response to LPS
Rule for the call: 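Each well counts as active if its z-score is over 2.8 or under -1.5; controls are left without a call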
Here is one part, drawn at random, of about 18,000 reagents tested. Of all reagents, about 2,900 (16%) are marked active. 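Calls are made per well; low scores hint the gene aids the LPS response, high scores that it dampens it.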 Repeated entries: four replicate wells of each siRNA pool.

gene | PubChem SID | TNF reporter robust z-score | activity call
P2RX6 (GeneID 9127) | SID315453064 | 0.37 | inactive
P2RX6 (GeneID 9127) | SID315453064 | 0.71 | inactive
P2RX6 (GeneID 9127) | SID315453064 | 0 | inactive
P2RX6 (GeneID 9127) | SID315453064 | 1.49 | inactive
CLEC4F (GeneID 165530) | SID315462826 | 0.45 | inactive
CLEC4F (GeneID 165530) | SID315462826 | 1.14 | inactive
CLEC4F (GeneID 165530) | SID315462826 | 0.3 | inactive
CLEC4F (GeneID 165530) | SID315462826 | 0.77 | inactive
ECE1 (GeneID 1889) | SID315448423 | -0.7 | inactive
ECE1 (GeneID 1889) | SID315448423 | 0.01 | inactive
ECE1 (GeneID 1889) | SID315448423 | -1.12 | inactive
ECE1 (GeneID 1889) | SID315448423 | 0.74 | inactive
ACP5 (GeneID 54) | SID315447157 | -0.43 | inactive
ACP5 (GeneID 54) | SID315447157 | -0.03 | inactive
ACP5 (GeneID 54) | SID315447157 | -0.07 | inactive
ACP5 (GeneID 54) | SID315447157 | -0.55 | inactive
FKBP6 (GeneID 8468) | SID315452583 | 1.02 | inactive
FKBP6 (GeneID 8468) | SID315452583 | 0.86 | inactive
FKBP6 (GeneID 8468) | SID315452583 | 0.87 | inactive
FKBP6 (GeneID 8468) | SID315452583 | 0.85 | inactive
OR7E85BP (GeneID 650293) | SID315465124 | 2.47 | inactive
OR7E85BP (GeneID 650293) | SID315465124 | 2.5 | inactive
OR7E85BP (GeneID 650293) | SID315465124 | 2.36 | inactive
OR7E85BP (GeneID 650293) | SID315465124 | 0.44 | inactive
BMF (GeneID 90427) | SID315460824 | -0.18 | inactive
BMF (GeneID 90427) | SID315460824 | -0.64 | inactive
BMF (GeneID 90427) | SID315460824 | 4.51 | active
BMF (GeneID 90427) | SID315460824 | 3.39 | active
SLC35G5 (GeneID 83650) | SID315460047 | 0.43 | inactive
SLC35G5 (GeneID 83650) | SID315460047 | 0.65 | inactive
SLC35G5 (GeneID 83650) | SID315460047 | -0.69 | inactive
SLC35G5 (GeneID 83650) | SID315460047 | 0 | inactive
PDHX (GeneID 8050) | SID315452385 | -0.81 | inactive
PDHX (GeneID 8050) | SID315452385 | -1.11 | inactive
PDHX (GeneID 8050) | SID315452385 | -0.91 | inactive
PDHX (GeneID 8050) | SID315452385 | -0.22 | inactive
CSTF2 (GeneID 1478) | SID315448155 | 0.15 | inactive
CSTF2 (GeneID 1478) | SID315448155 | -0.42 | inactive
CSTF2 (GeneID 1478) | SID315448155 | 0.13 | inactive
CSTF2 (GeneID 1478) | SID315448155 | 0.61 | inactive
METTL16 (GeneID 79066) | SID315459188 | -0.34 | inactive
METTL16 (GeneID 79066) | SID315459188 | 0.06 | inactive
METTL16 (GeneID 79066) | SID315459188 | -0.21 | inactive
METTL16 (GeneID 79066) | SID315459188 | -0.12 | inactive
RCN2 (GeneID 5955) | SID315451084 | 10.4 | active
RCN2 (GeneID 5955) | SID315451084 | -1.25 | inactive
RCN2 (GeneID 5955) | SID315451084 | -0.57 | inactive
RCN2 (GeneID 5955) | SID315451084 | 2.83 | active
CIC (GeneID 23152) | SID315455027 | -0.85 | inactive
CIC (GeneID 23152) | SID315455027 | -0.13 | inactive
CIC (GeneID 23152) | SID315455027 | -0.58 | inactive
CIC (GeneID 23152) | SID315455027 | -0.56 | inactive
NXF5 (GeneID 55998) | SID315457974 | -0.16 | inactive
NXF5 (GeneID 55998) | SID315457974 | 1.24 | inactive
NXF5 (GeneID 55998) | SID315457974 | -0.52 | inactive

Next part, starting with the last 9 of the part before.
gene | PubChem SID | TNF reporter robust z-score | activity call
RCN2 (GeneID 5955) | SID315451084 | -0.57 | inactive
RCN2 (GeneID 5955) | SID315451084 | 2.83 | active
CIC (GeneID 23152) | SID315455027 | -0.85 | inactive
CIC (GeneID 23152) | SID315455027 | -0.13 | inactive
CIC (GeneID 23152) | SID315455027 | -0.58 | inactive
CIC (GeneID 23152) | SID315455027 | -0.56 | inactive
NXF5 (GeneID 55998) | SID315457974 | -0.16 | inactive
NXF5 (GeneID 55998) | SID315457974 | 1.24 | inactive
NXF5 (GeneID 55998) | SID315457974 | -0.52 | inactive
ECT2 (GeneID 1894) | SID315448428 | 1.16 | inactive
ECT2 (GeneID 1894) | SID315448428 | 1.19 | inactive
ECT2 (GeneID 1894) | SID315448428 | 0.39 | inactive
ECT2 (GeneID 1894) | SID315448428 | 0.6 | inactive
IRS1 (GeneID 3667) | SID315449538 | -0.29 | inactive
IRS1 (GeneID 3667) | SID315449538 | -0.64 | inactive
IRS1 (GeneID 3667) | SID315449538 | -0.62 | inactive
IRS1 (GeneID 3667) | SID315449538 | -0.35 | inactive
ETV6 (GeneID 2120) | SID315448581 | -0.16 | inactive
ETV6 (GeneID 2120) | SID315448581 | 0.09 | inactive
ETV6 (GeneID 2120) | SID315448581 | -0.03 | inactive
ETV6 (GeneID 2120) | SID315448581 | 0.02 | inactive
ZFHX4 (GeneID 79776) | SID315459450 | -0.54 | inactive
ZFHX4 (GeneID 79776) | SID315459450 | 0.2 | inactive
ZFHX4 (GeneID 79776) | SID315459450 | -1.36 | inactive
ZFHX4 (GeneID 79776) | SID315459450 | 0.41 | inactive
MDM4 (GeneID 4194) | SID315449924 | -1.07 | inactive
MDM4 (GeneID 4194) | SID315449924 | -1.21 | inactive
MDM4 (GeneID 4194) | SID315449924 | -0.35 | inactive
MDM4 (GeneID 4194) | SID315449924 | -0.69 | inactive
UNC45A (GeneID 55898) | SID315457937 | -0.18 | inactive
UNC45A (GeneID 55898) | SID315457937 | -0.93 | inactive
UNC45A (GeneID 55898) | SID315457937 | -0.25 | inactive
UNC45A (GeneID 55898) | SID315457937 | -0.84 | inactive
UNC5A (GeneID 90249) | SID315460797 | -1.55 | active
UNC5A (GeneID 90249) | SID315460797 | -1.23 | inactive
UNC5A (GeneID 90249) | SID315460797 | -1.88 | active
UNC5A (GeneID 90249) | SID315460797 | -1.65 | active
PRELID2 (GeneID 153768) | SID315462574 | -0.18 | inactive
PRELID2 (GeneID 153768) | SID315462574 | 0 | inactive
PRELID2 (GeneID 153768) | SID315462574 | -0.54 | inactive
PRELID2 (GeneID 153768) | SID315462574 | 0.16 | inactive
SMARCA5 (GeneID 8467) | SID315452582 | 0.3 | inactive
SMARCA5 (GeneID 8467) | SID315452582 | 0.93 | inactive
SMARCA5 (GeneID 8467) | SID315452582 | 0.48 | inactive
SMARCA5 (GeneID 8467) | SID315452582 | 0.43 | inactive
MLXIP (GeneID 22877) | SID315454839 | 0.07 | inactive
MLXIP (GeneID 22877) | SID315454839 | -0.39 | inactive
MLXIP (GeneID 22877) | SID315454839 | -0.56 | inactive
MLXIP (GeneID 22877) | SID315454839 | 0.01 | inactive
POLE3 (GeneID 54107) | SID315456968 | -0.09 | inactive
POLE3 (GeneID 54107) | SID315456968 | 0.29 | inactive
POLE3 (GeneID 54107) | SID315456968 | 0.2 | inactive
POLE3 (GeneID 54107) | SID315456968 | 0.32 | inactive
PAQR5 (GeneID 54852) | SID315457208 | -0.81 | inactive
PAQR5 (GeneID 54852) | SID315457208 | -0.22 | inactive
PAQR5 (GeneID 54852) | SID315457208 | 0.03 | inactive
PAQR5 (GeneID 54852) | SID315457208 | -0.56 | inactive
FREY1 (GeneID 143678) | SID315462192 | -0.83 | inactive
FREY1 (GeneID 143678) | SID315462192 | -1.47 | inactive
FREY1 (GeneID 143678) | SID315462192 | -1.39 | inactive
FREY1 (GeneID 143678) | SID315462192 | -0.82 | inactive
SPATA16 (GeneID 83893) | SID315460121 | -0.74 | inactive
SPATA16 (GeneID 83893) | SID315460121 | -0.29 | inactive
SPATA16 (GeneID 83893) | SID315460121 | -0.22 | inactive
SPATA16 (GeneID 83893) | SID315460121 | -0.12 | inactive
